PubChem BioAssay AID504793, Drosophila RNAi Screening Center, 2011
Screen: 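Genes required for cells to halt at G2/M after double-strand DNA breaks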 (primary screen). Cells: Drosophila S2R+ cells. Reagents: long dsRNA against Drosophila genes, about 0.25 µg dsRNA per well. Timing: 4 days of dsRNA, then 4 hours of drug before read-out. Conditions: doxorubicin 0.5 µM for 4 hours to cause double-strand breaks, in cells also given a low, harmless dose of dsRNA against nbs to sensitise the assay. Measurement: 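Mitotic index as the number of phospho-histone H3-positive cells in each well following doxorubicin, given as raw counts without normalisation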. Direction: mitotic cells: higher = more cells in mitosis, weaker G2 arrest. Active means: 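Genes are called active only when high mitotic counts were reproduced with independent dsRNAs and mitosis was checked for delay without damage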. Meaning of the calls: active = confirmed in follow-up tests; inactive = not confirmed.
The deposit covers about 23,000 reagents; this is an unselected part of those with a known target gene and a result. In the full data, 62 (0.27%) got an active call. 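Calls come from follow-up tests whose scores are not deposited, so confirmed genes may have low counts here; counts are not normalised per plate.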 The raw values are shown without normalisation. Unmarked entries are inactive. Reagents against one gene are numbered here.

eIF2Balpha
- mitotic cells, replicate 1: 5

Rpn13
- mitotic cells, replicate 1: 4

Ssl1
- mitotic cells, replicate 1: 11

CG13108
- mitotic cells, replicate 1: 4

CG8003
- mitotic cells, replicate 1: 6

CG12118
- mitotic cells, replicate 1: 11

Or85c
- mitotic cells, replicate 1: 2

lectin-21Ca
- mitotic cells, replicate 1: 6

Mal-A6 #1
- mitotic cells, replicate 1: 5

Mal-A6 #2
- mitotic cells, replicate 1: 6

CG9517 (retired record) #1
- mitotic cells, replicate 1: 25

CG9517 (retired record) #2
- mitotic cells, replicate 1: 14

CG9517 (retired record) #3
- mitotic cells, replicate 1: 8

Cyp313a4
- mitotic cells, replicate 1: 2

EMC4 #1
- mitotic cells, replicate 1: 12

EMC4 #2
- mitotic cells, replicate 1: 8

CG12020 #1
- mitotic cells, replicate 1: 5

CG12020 #2
- mitotic cells, replicate 1: 4

Lcp4 #1
- mitotic cells, replicate 1: 4

Lcp4 #2
- mitotic cells, replicate 1: 17

Oxp
- mitotic cells, replicate 1: 6

side #1
- mitotic cells, replicate 1: 11
- mitotic cells, replicate 2: 12

side #2
- mitotic cells, replicate 1: 14

side #3
- mitotic cells, replicate 1: 14

side #4
- mitotic cells, replicate 1: 9

side #5
- mitotic cells, replicate 1: 7

CG42260 #1
- mitotic cells, replicate 1: 3

CG42260 #2
- mitotic cells, replicate 1: 6

CG42260 #3
- mitotic cells, replicate 1: 7

CG42260 #4
- mitotic cells, replicate 1: 3

CG12164 #1
- mitotic cells, replicate 1: 13

CG12164 #2
- mitotic cells, replicate 1: 11

CG12164 #3
- mitotic cells, replicate 1: 6

CG3492
- mitotic cells, replicate 1: 1

4 consecutive reagents from above, quoted:
CG42260 #3
- mitotic cells, replicate 1: 7

CG42260 #4
- mitotic cells, replicate 1: 3

CG12164 #1
- mitotic cells, replicate 1: 13

CG12164 #2
- mitotic cells, replicate 1: 11
